{"source": "patent US9791451B2", "about": "“Squaraine based fluorescent probe and a process for the preparation thereof” (Council of Scientific & Industrial Research, priority 2013, dated 2017)", "assay": "Reversibility of noncovalent and covalent dye-albumin interaction in acid/base cycles", "type": "physicochemical", "data": [{"substance": "1:6 Sq-BSA complex: complex of squaraine dye Sq with BSA protein in ratio 1:6", "values": [{"measurement": "number of acid-base cycles with switching observed", "setting": "pH 5.8 to 7.4", "value": "at least for four cycles"}, {"measurement": "reversibility of noncovalent/covalent interaction", "setting": "pH 5.8 to 7.4, acid/base additions, 700 nm and 480 nm emission", "value": "highly reversible"}]}]}
